Among the data in article doi:10.1101/559146 are binding values, retold here.

Sequences of proteins named here, by UniProt entry; tags and fusion partners are left off. A change or cut given only in a name is not applied to a line headed by its entry.
UniProt P25443: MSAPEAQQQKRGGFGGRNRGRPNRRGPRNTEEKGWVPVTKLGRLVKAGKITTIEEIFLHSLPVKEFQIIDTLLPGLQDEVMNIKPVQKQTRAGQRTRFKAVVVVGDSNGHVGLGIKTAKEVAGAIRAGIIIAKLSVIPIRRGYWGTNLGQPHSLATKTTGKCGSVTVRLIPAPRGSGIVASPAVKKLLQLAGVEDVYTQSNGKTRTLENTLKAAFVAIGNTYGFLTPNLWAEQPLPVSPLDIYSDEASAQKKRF

This assay addresses T1, Tsr4-TEV-13myc (S. cerevisiae) (UniProt P25040).
T1 sequence: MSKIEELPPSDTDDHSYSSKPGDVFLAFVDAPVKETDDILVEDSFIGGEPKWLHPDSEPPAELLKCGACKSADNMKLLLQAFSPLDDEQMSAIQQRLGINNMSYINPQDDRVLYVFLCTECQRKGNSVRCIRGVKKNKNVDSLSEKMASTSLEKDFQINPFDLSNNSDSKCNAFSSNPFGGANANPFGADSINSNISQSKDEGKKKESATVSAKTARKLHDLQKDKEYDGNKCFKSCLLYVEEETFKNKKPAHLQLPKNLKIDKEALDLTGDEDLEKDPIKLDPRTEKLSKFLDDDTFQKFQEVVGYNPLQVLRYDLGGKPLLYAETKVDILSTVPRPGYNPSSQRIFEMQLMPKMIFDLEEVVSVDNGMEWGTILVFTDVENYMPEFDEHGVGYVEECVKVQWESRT
Nature of the assay: co-IP.

No constants are given. Whether binding was seen depends on the method and setting. In cells and extracts the contact can be indirect. Binding can be weak; no strength is given. Where a sequence is shown, tags or fusion partners need not be part of it.

For the substance “Rps2-GFP fragment lacking the N-terminus (from UniProt P25443) (domain or fragment)”, the binding entry was “binds”.
